Measured values published in patent publication US12697366B2, “Thermogenic compositions and methods” (Ohio State Innovation Foundation, priority 2016, dated 2026).
Not every detail of the peptide structures is certain; ends, links or a residue may be inferred. Residues, ends and D or L forms follow the SMILES beside them. *: point of attachment. Fmoc = O=C(OCC1c2ccccc2-c2ccccc21)*; Bz = O=C(c1ccccc1)*

Tested on: 3T3-L1 adipocytes
Assay: Thermogenic gene expression in 3T3-L1 adipocytes (TaqMan / RT-PCR)
Assay type: cell-based, mouse
Details: 10 ng/ml recombinant EREG; FIG. 22
Procedure: FIGS. 9A to 9D show DRG neurons (500 neurons per well) cultured in DRG culture medium only, or DRG culture medium with NT-3 (1 ng/mL), with NGF (10 ng/mL), with WT secretome (1/1, v/v), or with Aldh1a1^−/− secretome (1/1, v/v) for 24 hours. WT and Aldh1a1^−/− adipocytes differentiated for 5 days. Secretome is the media collected from these cells for 24 h. Neurite outgrowth parameters were assayed using the Thermo Scientific™ ArrayScan™ XTI Live High Content microscope and analyzed with the Neuronal Profiling Algorithm (ThermoFisher). Nine independent experiments were performed using DRG from three mice. Each DRG batch was analyzed in triplicate. […] FIG. 9A: Representative images show ~25% of area used for the automatic quantification of neuronal parameters in FIG. 3 per one condition. […] FIG. 9B: Secreted EFNA5 levels in the medium from 3T3-L1 preadipocytes and adipocytes differentiated for 4d were analyzed by ELISA. FIG. 9C: Basal metabolic rate (heat) was measured in PBS- and EFNA5-injected mice from Table 1, Study 4 by an open circuit indirect calorimetry treadmill. […] Expression was measured by RT-PCR and normalized by 18S.
FIGS. 11A to 11I show adipokine Ereg is bilaterally associated with obesity and thermogenesis and activates PPARα. […] FIG. 11C: Ereg expression was measured in differentiated (day 5) 3T3-L1 and Aldh1a1^−/− adipocytes by Taqman and normalized to TATA box protein (TBP). […]

`NCCCC[C@H](NC(=O)OCC1c2ccccc2-c2ccccc21)C(=O)N[C@@H](Cc1ccccc1)C(=O)N[C@@H](CCCCN)C(=O)N[C@@H](CCCCNC(=O)c1ccccc1)C(N)=O` [Fmoc-KFKK(Bz)-NH2] (Fmoc-KFKK(Bz)-NH2) was tested, and the “expression of thermogenic gene Pgc1a” value was “increases”.
